From article doi:10.1101/2022.03.26.485938
No constants are given. Whether binding was seen depends on the method and setting. For part of these data: Binding can be weak; no strength is given. For part of these data: Where a sequence is shown, tags or fusion partners need not be part of it.

T1: Clathrin Light Chain (CLC2)-GFP (Arabidopsis thaliana) (UniProt O04209)
T1 sequence: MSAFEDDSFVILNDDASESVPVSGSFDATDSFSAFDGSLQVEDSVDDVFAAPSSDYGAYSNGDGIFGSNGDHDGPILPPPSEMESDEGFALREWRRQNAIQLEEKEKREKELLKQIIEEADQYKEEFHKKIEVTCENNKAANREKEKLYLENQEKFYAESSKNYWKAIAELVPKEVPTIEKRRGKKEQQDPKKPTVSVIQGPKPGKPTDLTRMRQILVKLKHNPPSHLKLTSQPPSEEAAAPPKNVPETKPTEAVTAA


How the values were obtained:
[1] = biological target: T1, Clathrin Light Chain (CLC2)-GFP (Arabidopsis thaliana); assay: pull-down
[2] = biological target: binding domain (BD)-Kin7.3 (Arabidopsis thaliana); assay: two-hybrid

binding [1] | binding [2] | Molecule
no binding | – | GST-SFH8^ΔIDR (Arabidopsis thaliana) (domain or fragment)
– | binds | SPC25 (protein, UniProt Q93VK9 1-315) MEQISNIAGGDTTKETMASLGLICEKDIHEQRLKIDSFIASPFRRSMNSLVERAQATAQSQVELMNLKADLREAEDELVKVLAVKTRKEARQMGIRDSISATQSRIEVLRRNLQLQKSKKDDSVRIISQQLQALSKSKDNAGKVTEDKADIHEAISWYNHALGFHVEAGHGVKFTFTNIDAKRPTREFSFTVHYGNDIYTLLDSDLQLDYINEMVQELNKTNDLFRFVRLMREQFLKSTLSELPTHSGQLQQETSAISASAPAISFSTDTNMSTPENKRSKVQVNRRQKRGSESPLLAPVSTSATRRSSRFKGKK
– | binds | PORCINO (protein, UniProt Q9SMR2 1-345) MEDDGQSSVAETLDPALQKKHHDMLERLSARHQARKSDSPDSSSSSSSTLESTSSFLAKFSDSKRSIESRIAESRLASSSTDSSKLKSDLAEISVAIDNLEKLLAENSYFLPSYEVRSSLKIVSDLKQSLDILSGELVPKKKFSFKSKSTTKKPESKLPEIQKPDVVLPPKLVPVRDSPGLRNKHGETLVKSFEGSSIGEFTLSDLDSCQVKLTGTVNALFLHRLKKCSVYTGPVIGSILIDDVEDCVLVLASHQIRIHCARKSDFYLRVRSRPIIEDSNGVRFAPYCLDYKGIDEDLKTAGLEEETNNWANVDDFRWLRAVQSPNWSLLPEEERVSLLTISGDS
